Reference: patent US20190117630A1, “METHODS AND DRUG COMPOSITIONS FOR TREATING LYME DISEASE” (priority 2016, published 2019)
Some entries share one result that the patent states for a list of compounds.

System: Borrelia isolate CA8 Bss
Assay: Time-kill studies
Type: cell-based, B. burgdorferi sensu stricto
Settings: CA8 strain
Protocol: Time-kill studies were performed with Borrelia isolate CA8 Bss with azlocillin sodium and cefotaxime acid. To determine the rate of antimicrobial activity, 10^6/ml Borrelia cultures were grown in BSK-II medium with drugs at different concentrations. BSK-II medium with no drugs is used as a control. The antibacterial activity was determined by counting bacteria at 24 hours, 48 hours and 72 hours. The experiment was done once with triplicates.

Row | Structure (SMILES) | decrease of initial Borrelia inoculum, time-kill (0.625 μM) | decrease of initial Borrelia inoculum, time-kill (1.25 μM)
1 | CC1(C)S[C@@H]2[C@H](NC(=O)[C@H](NC(=O)N3CCNC3=O)c3ccccc3)C(=O)N2[C@H]1C(=O)O [Azlocillin sodium] | < 1 log10-unit | < 1 log10-unit
2 | CO/N=C(\C(=O)N[C@@H]1C(=O)N2C(C(=O)O)=C(COC(C)=O)CS[C@H]12)c1csc(N)n1 [Cefotaxime acid] | < 1 log10-unit | 
